Counter-ions that a name gives are not always drawn. Some of these results come from one statement about several compounds together.
test system: TNF-stimulated IL8 production by human neutrophils; experiment: TNF-stimulated IL-8 production from human neutrophils; assay type: cell-based; settings: TNF 100 ng/ml, about 20 hrs, screened up to 100 nM; result in words; call rule not given here;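 also: IL-8 in cell-free supernatant quantified by sandwich ELISA, inhibition calculated against a compound-free control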

| SMILES | activity (IC50) against TNF-stimulated IL-8 production from human neutrophils |
| --- | --- |
| Cc1ccc(C(=O)NCC2CC2)cc1-c1nc(NC2CCNCC2)nc2c1ccc(=O)n2-c1c(F)cccc1F [2(b), N-(cyclopropylmethyl)-3-[8-(2,6-difluorophenyl)-7-oxo-2-(4-piperidinylamino)-7,8-dihydropyrido[2,3-d]pyrimidin-4-yl]-4-methylbenzamide] | active |
| Cc1ccc(N)cc1-c1nc(NC(CO)CO)nc2c1ccc(=O)n2-c1c(F)cccc1F [37(a), 4-(5-amino-2-methyl-phenyl)-8-(2,6-difluoro-phenyl)-2-(2-hydroxy-1-hydroxymethyl-ethylamino)-8H-pyrido[2,3-d]pyrimidin-7-one] | active |
| CCCNC(=O)c1ccc(C)c(-c2nc(NC(CO)CO)nc3c2ccc(=O)n3-c2c(F)cccc2F)c1 [80(b), 3-(8-(2,6-difluorophenyl)-2-{[2-hydroxy-1-(hydroxymethyl)ethyl]amino}-7-oxo-7,8-dihydropyrido[2,3-d]pyrimidin-4-yl)-4-methyl-N-propylbenzamide trifluoroacetate] | active |
| CCN(CC)CCCNc1nc(-c2cc(C(=O)NC(C)C)ccc2C)c2ccc(=O)n(-c3c(F)cccc3F)c2n1 [118(b), 3-[2-{[3-(diethylamino)propyl]amino}-8-(2,6-difluorophenyl)-7-oxo-7,8-dihydropyrido[2,3-d]pyrimidin-4-yl]-4-methyl-N-(1-methylethyl)benzamide] | active |
| Cc1ccc(C(=O)NCC2CC2)cc1-c1nc(NCc2ncc[nH]2)nc2c1ccc(=O)n2-c1c(F)cccc1F [Example 5, N-(cyclopropylmethyl)-3-{8-(2,6-difluorophenyl)-2-[(1H-imidazol-2-ylmethyl)amino]-7-oxo-7,8-dihydropyrido[2,3-d]pyrimidin-4-yl}-4-methylbenzamide] | active |
| Cc1ccc(C(=O)NCC2CC2)cc1-c1nc(N(C)CCN)nc2c1ccc(=O)n2-c1c(F)cccc1F [Example 6, 3-[2-[(2-aminoethyl)(methyl)amino]-8-(2,6-difluorophenyl)-7-oxo-7,8-dihydropyrido[2,3-d]pyrimidin-4-yl]-N-(cyclopropylmethyl)-4-methylbenzamide] | active |
| Cc1ccc(NC(=O)c2cccs2)cc1-c1nc(N2CCC(N)CC2)nc2c1ccc(=O)n2-c1c(F)cccc1F [Example 8, N-{3-[2-(4-amino-1-piperidinyl)-8-(2,6-difluorophenyl)-7-oxo-7,8-dihydropyrido[2,3-d]pyrimidin-4-yl]-4-methylphenyl}-2-thiophenecarboxamide] | active |
| Cc1cc(C(=O)Nc2ccc(C)c(-c3nc(N4CCC(N)CC4)nc4c3ccc(=O)n4-c3c(F)cccc3F)c2)ccc1F [Example 13, N-{3-[2-(4-amino-1-piperidinyl)-8-(2,6-difluorophenyl)-7-oxo-7,8-dihydropyrido[2,3-d]pyrimidin-4-yl]-4-methylphenyl}-4-fluoro-3-methylbenzamide] | active |
| Cc1ccc(C(=O)NC2CC2)cc1-c1nc(NCc2ncc[nH]2)nc2c1ccc(=O)n2-c1c(F)cccc1F [Example 23, N-cyclopropyl-3-{8-(2,6-difluorophenyl)-2-[(1H-imidazol-2-ylmethyl)amino]-7-oxo-7,8-dihydropyrido[2,3-d]pyrimidin-4-yl}-4-methylbenzamide] | active |
| Cc1ccc(C(=O)NCCc2ccc(F)cc2)cc1-c1nc(NC2CC(C)(C)NC(C)(C)C2)nc2c1ccc(=O)n2-c1c(F)cccc1F [Example 26, 3-{8-(2,6-difluorophenyl)-7-oxo-2-[(2,2,6,6-tetramethyl-4-piperidinyl)amino]-7,8-dihydropyrido[2,3-d]pyrimidin-4-yl}-N-[2-(4-fluorophenyl)ethyl]-4-methylbenzamide] | active |
| Cc1ccc(C(=O)NCCc2ccccc2)cc1-c1nc(NC2CC(C)(C)NC(C)(C)C2)nc2c1ccc(=O)n2-c1c(F)cccc1F [Example 28, 3-{8-(2,6-difluorophenyl)-7-oxo-2-[(2,2,6,6-tetramethyl-4-piperidinyl)amino]-7,8-dihydropyrido[2,3-d]pyrimidin-4-yl}-4-methyl-N-(2-phenylethyl)benzamide] | active |
| Cc1ccc(C(=O)Nc2ccc(F)cc2)cc1-c1nc(N(C)CCN)nc2c1ccc(=O)n2-c1c(F)cccc1F [Example 33, 3-[2-[(2-aminoethyl)(methyl)amino]-8-(2,6-difluorophenyl)-7-oxo-7,8-dihydropyrido[2,3-d]pyrimidin-4-yl]-N-(4-fluorophenyl)-4-methylbenzamide] | active |
| Cc1ccc(NC(=O)c2c(O)ccc3ccccc23)cc1-c1nc(NC(CO)CO)nc2c1ccc(=O)n2-c1c(F)cccc1F [Example 39, N-[3-(8-(2,6-difluorophenyl)-2-{[2-hydroxy-1-(hydroxymethyl)ethyl]amino}-7-oxo-7,8-dihydropyrido[2,3-d]pyrimidin-4-yl)-4-methylphenyl]-2-hydroxy-1-naphthalenecarboxamide trifluoroacetate] | active |
| Cc1cnc(C(=O)Nc2ccc(C)c(-c3nc(NC(CO)CO)nc4c3ccc(=O)n4-c3c(F)cccc3F)c2)cn1 [Example 41, N-[3-(8-(2,6-difluorophenyl)-2-{[2-hydroxy-1-(hydroxymethyl)ethyl]-amino}-7-oxo-7,8-dihydropyrido[[2,3-d]pyrimidin-4-yl)-4-methylphenyl]-5-methyl-2-pyrazinecarboxamide trifluoroacetate] | active |
| Cc1ccc(NC(=O)c2ccc3[nH]ccc3c2)cc1-c1nc(NC(CO)CO)nc2c1ccc(=O)n2-c1c(F)cccc1F [Example 42, N-[3-(8-(2,6-difluorophenyl)-2-{[2-hydroxy-1-(hydroxymethyl)ethyl]amino}-7-oxo-7,8-dihydropyrido[2,3-d]pyrimidin-4-yl)-4-methylphenyl]-1H-indole-5-carboxamide trifluoroacetate] | active |
| Cc1ccc(NC(=O)c2cccc(N)c2)cc1-c1nc(NC(CO)CO)nc2c1ccc(=O)n2-c1c(F)cccc1F [Example 43, 3-amino-N-[3-(8-(2,6-difluorophenyl)-2-{[2-hydroxy-1-(hydroxymethyl)ethyl]-amino}-7-oxo-7,8-dihydropyrido[2,3-d]pyrimidin-4-yl)-4-methylphenyl]benzamide trifluoroacetate] | active |
| Cc1cccc(CC(=O)Nc2ccc(C)c(-c3nc(NC(CO)CO)nc4c3ccc(=O)n4-c3c(F)cccc3F)c2)c1 [Example 45, N-[3-(8-(2,6-difluorophenyl-2-{[2-hydroxy-1-(hydroxymethyl)ethyl]amino}-7-oxo-7,8-dihydropyrido[2,3-d]pyrimidin-4-yl)-4-methylphenyl]-2-(3-methylphenyl)acetamide trifluoroacetate] | active |
| Cc1ccc(C(=O)NC(C)C)cc1-c1nc(NC(CO)CO)nc2c1ccc(=O)n2-c1c(F)cccc1F [Example 81, 3-(8-(2,6-difluorophenyl)-2-{[2-hydroxy-1-(hydroxymethyl)ethyl]amino}-7-oxo-7,8-dihydropyrido[2,3-d]pyrimidin-4-yl)-4-methyl-N-(1-methylethyl)benzamide trifluoroacetate] | active |
| Cc1ccc(C(=O)NC2CCCC2)cc1-c1nc(NC(CO)CO)nc2c1ccc(=O)n2-c1c(F)cccc1F [Example 83, N-cyclopentyl-3-(8-(2,6-difluorophenyl)-2-{[2-hydroxy-1-(hydroxymethyl)ethyl]-amino}-7-oxo-7,8-dihydropyrido[2,3-d]pyrimidin-4-yl)-4-methylbenzamide trifluoroacetate] | active |
| Cc1ccc(C(=O)Nc2ccc(F)cc2)cc1-c1nc(NC(CO)CO)nc2c1ccc(=O)n2-c1c(F)cccc1F [Example 84, 3-(8-(2,6-difluorophenyl)-2-{[2-hydroxy-1-(hydroxymethyl)ethyl]amino}-7-oxo-7,8-dihydropyrido[2,3-d]pyrimidin-4-yl)-N-(4-fluorophenyl)-4-methylbenzamide trifluoroacetate] | active |
| Cc1ccc(C(=O)Nc2nccs2)cc1-c1nc(NC(CO)CO)nc2c1ccc(=O)n2-c1c(F)cccc1F [Example 85, 3-(8-(2,6-difluorophenyl)-2-{[2-hydroxy-1-(hydroxymethyl)ethyl]amino}-7-oxo-7,8-dihydropyrido[2,3-d]pyrimidin-4-yl)-4-methyl-N-1,3-thiazol-2-ylbenzamide trifluoroacetate] | active |
| Cc1ccc(C(=O)Nc2ccc(F)cc2)cc1-c1nc(NCCN(C)C(=O)OC(C)(C)C)nc2c1ccc(=O)n2-c1c(F)cccc1F [Example 95, 1,1-dimethylethyl(2-{[8-(2,6-difluorophenyl)-4-(5-{[(4-fluorophenyl)amino]carbonyl}-2-methylphenyl)-7-oxo-7,8-dihydropyrido[2,3-d]pyrimidin-2-yl]amino}ethyl)methylcarbamate] | active |
| Cc1ccc(C(=O)Nc2ccc(F)cc2)cc1-c1nc(N(C)CCCN(C)C)nc2c1ccc(=O)n2-c1c(F)cccc1F [Example 115, 3-{8-(2,6-difluorophenyl)-2-[[3-(dimethylamino)propyl](methyl)amino]-7-oxo-7,8-dihydropyrido[2,3-d]pyrimidin-4-yl}-N-(4-fluorophenyl)-4-methylbenzamide] | active |
| CCN(CC)CCCNc1nc(-c2cc(C(=O)NC)ccc2C)c2ccc(=O)n(-c3c(F)cccc3F)c2n1 [Example 119, 3-[2-{[3-(diethylamino)propyl]amino}-8-(2,6-difluorophenyl)-7-oxo-7,8-dihydropyrido[2,3-d]pyrimidin-4-yl]-N,4-dimethylbenzamide] | active |

Source: patent US20100144755A1 (Glaxo Group Limited, priority 2006, published 2010)
